In publication PMC3398014:
These are yes or no findings as the source states them, for the method shown. Binding seen in cells or lysates may run through a third protein. For some of these results: Binding can be weak; no strength is given.

The chains behind the UniProt entries cited, without tags or fusion partners. Where a name states a change or a piece, a line headed by the entry shows the natural chain unless it says otherwise. Residues count along the entry.
UniProt P32004: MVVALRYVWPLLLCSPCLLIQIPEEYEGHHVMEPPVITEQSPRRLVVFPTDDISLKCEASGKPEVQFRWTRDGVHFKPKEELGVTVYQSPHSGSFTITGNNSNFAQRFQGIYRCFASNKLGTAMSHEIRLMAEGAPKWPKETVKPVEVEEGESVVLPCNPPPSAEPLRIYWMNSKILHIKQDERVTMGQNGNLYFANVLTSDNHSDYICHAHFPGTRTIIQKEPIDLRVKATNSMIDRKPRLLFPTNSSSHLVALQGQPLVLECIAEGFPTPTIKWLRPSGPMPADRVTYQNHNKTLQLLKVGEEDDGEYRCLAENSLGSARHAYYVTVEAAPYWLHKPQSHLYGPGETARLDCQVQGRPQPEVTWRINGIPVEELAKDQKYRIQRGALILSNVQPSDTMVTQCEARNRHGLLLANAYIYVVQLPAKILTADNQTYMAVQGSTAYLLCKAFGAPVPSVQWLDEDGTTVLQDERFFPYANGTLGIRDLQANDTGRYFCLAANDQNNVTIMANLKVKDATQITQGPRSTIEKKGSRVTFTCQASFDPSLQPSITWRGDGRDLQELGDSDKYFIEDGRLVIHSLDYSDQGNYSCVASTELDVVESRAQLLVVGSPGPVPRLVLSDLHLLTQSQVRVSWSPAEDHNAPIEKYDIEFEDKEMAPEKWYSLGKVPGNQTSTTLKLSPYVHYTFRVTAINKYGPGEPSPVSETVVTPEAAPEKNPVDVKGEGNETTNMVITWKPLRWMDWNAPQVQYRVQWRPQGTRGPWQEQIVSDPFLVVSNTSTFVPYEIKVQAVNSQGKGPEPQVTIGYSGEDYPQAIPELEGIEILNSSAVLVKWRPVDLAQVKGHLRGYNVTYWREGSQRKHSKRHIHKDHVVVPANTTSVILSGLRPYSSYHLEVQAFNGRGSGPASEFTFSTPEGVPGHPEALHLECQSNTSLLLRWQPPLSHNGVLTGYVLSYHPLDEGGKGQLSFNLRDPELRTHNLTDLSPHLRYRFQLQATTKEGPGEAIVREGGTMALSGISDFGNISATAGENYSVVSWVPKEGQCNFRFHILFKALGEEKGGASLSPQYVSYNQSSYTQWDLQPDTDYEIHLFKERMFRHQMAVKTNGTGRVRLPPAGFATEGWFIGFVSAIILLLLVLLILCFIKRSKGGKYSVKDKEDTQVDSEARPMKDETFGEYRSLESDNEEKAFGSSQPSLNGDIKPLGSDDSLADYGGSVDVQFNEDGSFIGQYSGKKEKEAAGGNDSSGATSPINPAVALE
UniProt P21860, residues 20-1342: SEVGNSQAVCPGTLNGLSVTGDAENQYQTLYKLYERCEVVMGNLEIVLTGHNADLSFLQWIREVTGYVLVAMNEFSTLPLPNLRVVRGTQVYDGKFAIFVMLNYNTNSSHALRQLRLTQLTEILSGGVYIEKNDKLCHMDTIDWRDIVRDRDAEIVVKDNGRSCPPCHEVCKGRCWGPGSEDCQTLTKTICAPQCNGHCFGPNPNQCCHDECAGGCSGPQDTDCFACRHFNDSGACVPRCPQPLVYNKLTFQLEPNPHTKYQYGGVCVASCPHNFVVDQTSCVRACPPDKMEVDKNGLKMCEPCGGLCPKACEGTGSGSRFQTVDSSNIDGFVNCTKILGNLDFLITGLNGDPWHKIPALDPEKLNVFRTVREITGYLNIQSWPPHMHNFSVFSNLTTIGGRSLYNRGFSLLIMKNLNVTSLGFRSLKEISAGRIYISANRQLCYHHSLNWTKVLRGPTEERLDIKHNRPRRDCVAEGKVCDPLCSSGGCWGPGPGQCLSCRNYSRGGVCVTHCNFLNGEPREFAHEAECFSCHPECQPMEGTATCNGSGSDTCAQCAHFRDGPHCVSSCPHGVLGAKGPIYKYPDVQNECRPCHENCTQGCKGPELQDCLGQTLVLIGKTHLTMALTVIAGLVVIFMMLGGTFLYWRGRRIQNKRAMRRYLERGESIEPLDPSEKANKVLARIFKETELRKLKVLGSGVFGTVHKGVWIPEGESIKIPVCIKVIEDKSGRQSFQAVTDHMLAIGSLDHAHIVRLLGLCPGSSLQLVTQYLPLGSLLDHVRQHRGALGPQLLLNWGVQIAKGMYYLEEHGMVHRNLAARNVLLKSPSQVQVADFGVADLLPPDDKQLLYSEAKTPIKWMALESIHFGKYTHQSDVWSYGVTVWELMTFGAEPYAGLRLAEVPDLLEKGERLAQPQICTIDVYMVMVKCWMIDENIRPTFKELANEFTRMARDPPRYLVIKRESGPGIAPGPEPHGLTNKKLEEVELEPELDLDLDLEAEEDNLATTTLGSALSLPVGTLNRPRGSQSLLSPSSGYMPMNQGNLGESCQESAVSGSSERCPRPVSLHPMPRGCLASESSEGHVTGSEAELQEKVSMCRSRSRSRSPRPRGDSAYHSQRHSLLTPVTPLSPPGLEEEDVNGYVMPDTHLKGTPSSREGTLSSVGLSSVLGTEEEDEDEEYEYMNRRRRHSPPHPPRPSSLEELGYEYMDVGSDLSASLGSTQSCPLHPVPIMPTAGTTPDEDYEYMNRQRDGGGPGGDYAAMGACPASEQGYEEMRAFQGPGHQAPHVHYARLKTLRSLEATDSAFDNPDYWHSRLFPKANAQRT

Tests used:
Assay in all cases: co-IP; HEK293 cells co-transfected; lysis in 50 mM Tris, 150 mM NaCl, 2 mM EDTA, 0.5% Triton X-100; antibody-loaded protein A-Sepharose, 3 h on ice; western blot of the partner; done in both directions
[1] = biological target: ΔIg-L1CAM (human) (UniProt P32004)
[2] = biological target: ΔIg4-6-L1CAM (human) (UniProt P32004)
[3] = biological target: ΔFn-L1CAM (human) (UniProt P32004)
[4] = biological target: ΔIg1-3-L1CAM (human) (UniProt P32004)

erbB3 receptor (from UniProt P21860 20-1342)
binding [1]: no binding
binding [2]: binds
binding [3]: binds
binding [4]: binds
